Values from PubChem BioAssay AID1508588 (Peter MacCallum Cancer Centre, 2020)
The whole screen tested about 18,000 reagents; this is an unselected part. 790 of them (4.4%) were called active. 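Calls rest on a combination of fold-change classes in drug and vehicle arms, not all shown here.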 Unmarked entries are inactive. No sequences are given here.

- Test: 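Which gene losses make BRAF-mutant melanoma cells more responsive to vemurafenib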 (primary screen)
- System: human WM266.4 melanoma cells (BRAF V600 mutant)
- Knock-down reagent: siRNA pool against human genes, 40 nM
- Duration: 96 h from transfection to read-out
- Conditions: vemurafenib 300 nM (about IC25), added 48 h after transfection, for 48 h; comparison arm got DMSO vehicle only
- Measurement: 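Cell gain (DAPI nuclei at end minus before drug, mean of two replicates) and medium lactate by absorbance per cell, both as ratio to non-targeting siRNA, also grouped into fold-change classes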
- Scale: cell gain with vemurafenib: higher = more cell gain than with non-targeting siRNA; lactate per cell with vemurafenib: higher = more lactate made per cell
- Rule for the call: 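Enhancement is called by pairing each knock-down's vehicle-arm and drug-arm fold-change classes for viability or glycolysis; which class combinations qualify is not given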
- Meaning of the calls: active = enhances vemurafenib effect; inactive = no enhancement seen

gene symbol | cell gain with vemurafenib | lactate per cell with vemurafenib
ING2 (GeneID 3622) | 0.22 | 1.42
SNX7 (GeneID 51375) | 0.1 | 2.52
YPEL2 (GeneID 388403) | 0.78 | 0.84
PIGH (GeneID 5283) | 0.68 | 0.64
VCAM1 (GeneID 7412) | 0.8 | 0.5
RPSA (GeneID 3921) | 0.01 | 2.92
ABCA1 (GeneID 19) | 0.89 | 0.94
IRGC (GeneID 56269) | 1.04 | 0.62
ODF2L (GeneID 57489) | 0.85 | 1.15
CCL26 (GeneID 10344) | 0.18 | 2.71
IL23R (GeneID 149233) | 0.75 | 0.96
CLCA2 (GeneID 9635) | 0.59 | 0.87
C10orf53 (GeneID 282966) | 0.49 | 1.09
MICALL2 (GeneID 79778) | 1.12 | 0.8
TIMP2 (GeneID 7077) | 0.55 | 1.92
SPPL2B (GeneID 56928) | 1.01 | 0.58
CCDC74B (GeneID 91409) | 0.97 | 1.31
SMAGP (GeneID 57228) | 0.63 | 1.01
ZNF329 (GeneID 79673) | 0.58 | 0.8
TSSK3 (GeneID 81629) | 0.33 | 1.31
HBM (GeneID 3042) | 0.71 | 1.12
FBXW5 (GeneID 54461) | 0.66 | 0.44
UGT2B17 (GeneID 7367) | 0.39 | 0.66
SFRP5 (GeneID 6425) | 0.41 | 1.27
GZMK (GeneID 3003) | 0.83 | 0.44
TLDC2 (GeneID 140711) | 0.85 | 1.04
GPR82 (GeneID 27197) | 0.48 | 0.84
NKAPD1 (GeneID 55216) | 0.94 | 0.86
BPIFB1 (GeneID 92747) | 0.09 (active) | 0.29
PPP1R13B (GeneID 23368) | 0.78 | 0.58
RFPL4AL1 (GeneID 729974) | 0.37 | 1.12
NT5C (GeneID 30833) | 0.77 | 1
ANP32A (GeneID 8125) | 0.95 | 1.13
REG3G (GeneID 130120) | 1.44 | 0.8
CLCA4 (GeneID 22802) | 0.41 | 1.88
NUTM2G (GeneID 441457) | 0.91 | 0.47
CCL3 (GeneID 6348) | 0.18 (active) | 0.62
DNAJB9 (GeneID 4189) | 0.63 | 1.15
RRP12 (GeneID 23223) | 0.43 | 1.52
CUL7 (GeneID 9820) | 0.46 | 0.54
FABP1 (GeneID 2168) | 0.61 | 1.29
DOK6 (GeneID 220164) | 0.53 | 1.25
E4F1 (GeneID 1877) | 0.32 | 1.72
CIMIP1 (GeneID 128602) | 0.62 | 0.62
ZCCHC8 (GeneID 55596) | 0.85 | 0.84
CYP24A1 (GeneID 1591) | 0.5 | 0.39
CASP6 (GeneID 839) | 0.55 | 0.84
ARF3 (GeneID 377) | 0.64 | 1.5
TPPP2 (GeneID 122664) | 0.53 | 1.25
D2HGDH (GeneID 728294) | 0.42 | 0.98
PACSIN3 (GeneID 29763) | 0.69 | 2.24
HSPA12A (GeneID 259217) | 0.54 | 0.72
ARL17B (GeneID 100506084) | 0.77 | 1.36
VPS29 (GeneID 51699) | 0.63 | 0.82
HOMER2 (GeneID 9455) | 0.87 | 1.07
S1PR4 (GeneID 8698) | 0.44 | 2.12
MCM9 (GeneID 254394) | 0.81 | 0.64

Entries above whose target name begins with P or p:
gene symbol | cell gain with vemurafenib | lactate per cell with vemurafenib
PIGH (GeneID 5283) | 0.68 | 0.64
PPP1R13B (GeneID 23368) | 0.78 | 0.58
PACSIN3 (GeneID 29763) | 0.69 | 2.24
